According to the supplement of paper PMC10849652:
This is one part of the list.

Sequences of proteins named here, by UniProt entry; tags and fusion partners are left off. A change or cut given only in a name is not applied to a line headed by its entry.
UniProt Q12913: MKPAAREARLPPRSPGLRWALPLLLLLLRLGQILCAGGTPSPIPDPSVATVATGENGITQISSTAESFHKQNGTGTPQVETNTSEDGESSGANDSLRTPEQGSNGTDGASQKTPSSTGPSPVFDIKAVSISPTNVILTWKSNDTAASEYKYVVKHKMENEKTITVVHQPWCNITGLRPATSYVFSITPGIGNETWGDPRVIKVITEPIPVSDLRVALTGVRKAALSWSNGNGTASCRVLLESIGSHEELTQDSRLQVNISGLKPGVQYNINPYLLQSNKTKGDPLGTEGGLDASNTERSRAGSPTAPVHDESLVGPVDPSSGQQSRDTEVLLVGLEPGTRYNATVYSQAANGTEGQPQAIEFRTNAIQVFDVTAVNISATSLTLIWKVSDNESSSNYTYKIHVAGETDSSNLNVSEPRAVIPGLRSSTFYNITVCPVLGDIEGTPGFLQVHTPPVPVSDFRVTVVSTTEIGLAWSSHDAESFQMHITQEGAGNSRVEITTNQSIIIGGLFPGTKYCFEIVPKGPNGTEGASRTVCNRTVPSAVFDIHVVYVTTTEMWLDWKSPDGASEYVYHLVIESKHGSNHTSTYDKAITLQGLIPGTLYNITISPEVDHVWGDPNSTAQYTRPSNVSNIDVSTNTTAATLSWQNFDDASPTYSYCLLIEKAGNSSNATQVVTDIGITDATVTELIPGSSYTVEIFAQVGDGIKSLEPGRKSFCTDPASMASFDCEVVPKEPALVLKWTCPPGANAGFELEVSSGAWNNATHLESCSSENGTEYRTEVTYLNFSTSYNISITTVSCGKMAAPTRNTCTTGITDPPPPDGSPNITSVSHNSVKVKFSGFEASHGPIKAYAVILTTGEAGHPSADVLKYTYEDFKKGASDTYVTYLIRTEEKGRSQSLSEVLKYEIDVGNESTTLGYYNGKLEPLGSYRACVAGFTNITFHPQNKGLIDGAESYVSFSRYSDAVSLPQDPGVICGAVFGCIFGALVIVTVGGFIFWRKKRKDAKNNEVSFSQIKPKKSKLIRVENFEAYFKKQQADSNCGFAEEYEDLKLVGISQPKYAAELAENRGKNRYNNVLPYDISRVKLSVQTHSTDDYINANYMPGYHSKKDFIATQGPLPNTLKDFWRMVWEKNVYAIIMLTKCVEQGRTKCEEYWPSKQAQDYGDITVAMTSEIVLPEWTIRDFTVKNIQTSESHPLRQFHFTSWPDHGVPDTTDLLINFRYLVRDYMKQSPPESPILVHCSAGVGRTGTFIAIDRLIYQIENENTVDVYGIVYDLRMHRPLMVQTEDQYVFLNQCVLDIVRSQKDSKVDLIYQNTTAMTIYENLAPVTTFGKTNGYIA
UniProt P43378: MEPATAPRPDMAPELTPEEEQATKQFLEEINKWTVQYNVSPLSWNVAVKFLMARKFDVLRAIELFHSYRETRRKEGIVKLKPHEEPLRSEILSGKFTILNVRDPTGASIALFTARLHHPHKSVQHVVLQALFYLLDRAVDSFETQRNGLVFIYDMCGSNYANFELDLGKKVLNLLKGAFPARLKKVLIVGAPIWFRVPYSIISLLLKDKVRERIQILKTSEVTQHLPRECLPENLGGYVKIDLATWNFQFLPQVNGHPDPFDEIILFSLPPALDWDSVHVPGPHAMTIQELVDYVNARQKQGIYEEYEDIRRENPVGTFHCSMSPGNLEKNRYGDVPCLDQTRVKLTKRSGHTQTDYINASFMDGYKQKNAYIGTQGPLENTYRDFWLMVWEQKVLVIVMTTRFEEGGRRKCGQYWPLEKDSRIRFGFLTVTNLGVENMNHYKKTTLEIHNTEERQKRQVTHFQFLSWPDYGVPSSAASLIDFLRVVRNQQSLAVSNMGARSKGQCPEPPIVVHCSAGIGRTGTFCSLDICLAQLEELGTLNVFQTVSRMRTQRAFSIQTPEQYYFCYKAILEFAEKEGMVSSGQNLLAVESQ
UniProt Q9Y606: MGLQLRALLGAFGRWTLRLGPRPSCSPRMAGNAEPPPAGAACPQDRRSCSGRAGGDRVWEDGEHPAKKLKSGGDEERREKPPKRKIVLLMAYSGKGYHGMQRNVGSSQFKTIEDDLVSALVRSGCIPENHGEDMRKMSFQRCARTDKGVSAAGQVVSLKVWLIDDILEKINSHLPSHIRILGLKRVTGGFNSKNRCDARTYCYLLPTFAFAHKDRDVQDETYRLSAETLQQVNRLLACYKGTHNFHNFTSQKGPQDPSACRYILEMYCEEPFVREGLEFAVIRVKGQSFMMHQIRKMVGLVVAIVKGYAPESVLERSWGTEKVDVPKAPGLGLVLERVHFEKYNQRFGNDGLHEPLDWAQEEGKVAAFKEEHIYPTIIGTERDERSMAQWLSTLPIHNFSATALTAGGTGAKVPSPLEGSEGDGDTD
UniProt Q9NYI0: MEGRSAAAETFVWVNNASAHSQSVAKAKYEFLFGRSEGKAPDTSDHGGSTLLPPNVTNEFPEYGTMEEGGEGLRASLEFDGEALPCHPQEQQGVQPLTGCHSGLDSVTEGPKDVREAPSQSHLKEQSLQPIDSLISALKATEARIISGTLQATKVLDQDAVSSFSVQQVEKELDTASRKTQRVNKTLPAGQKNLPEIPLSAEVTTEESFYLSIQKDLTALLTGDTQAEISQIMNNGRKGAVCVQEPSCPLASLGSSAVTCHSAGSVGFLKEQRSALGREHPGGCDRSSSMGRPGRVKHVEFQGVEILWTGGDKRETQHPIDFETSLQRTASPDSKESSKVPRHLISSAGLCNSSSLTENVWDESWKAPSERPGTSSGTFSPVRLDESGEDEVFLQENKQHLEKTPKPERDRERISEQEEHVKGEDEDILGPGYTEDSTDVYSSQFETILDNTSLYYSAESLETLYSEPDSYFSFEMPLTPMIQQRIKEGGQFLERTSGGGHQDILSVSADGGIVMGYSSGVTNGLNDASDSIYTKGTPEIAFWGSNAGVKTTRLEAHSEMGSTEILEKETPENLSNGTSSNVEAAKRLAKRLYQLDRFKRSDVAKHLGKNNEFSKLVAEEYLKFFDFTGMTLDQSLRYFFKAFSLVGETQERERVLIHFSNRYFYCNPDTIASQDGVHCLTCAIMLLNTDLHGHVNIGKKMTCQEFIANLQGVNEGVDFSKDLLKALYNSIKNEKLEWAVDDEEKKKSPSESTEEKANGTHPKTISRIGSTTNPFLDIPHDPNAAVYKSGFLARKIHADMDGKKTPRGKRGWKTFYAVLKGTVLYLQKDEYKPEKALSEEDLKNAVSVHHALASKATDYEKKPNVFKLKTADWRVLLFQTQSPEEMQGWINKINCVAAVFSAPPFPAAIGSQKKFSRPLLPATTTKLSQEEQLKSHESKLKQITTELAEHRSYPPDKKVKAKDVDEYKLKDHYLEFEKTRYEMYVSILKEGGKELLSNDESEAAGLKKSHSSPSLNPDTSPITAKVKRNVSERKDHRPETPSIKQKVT
UniProt P28062: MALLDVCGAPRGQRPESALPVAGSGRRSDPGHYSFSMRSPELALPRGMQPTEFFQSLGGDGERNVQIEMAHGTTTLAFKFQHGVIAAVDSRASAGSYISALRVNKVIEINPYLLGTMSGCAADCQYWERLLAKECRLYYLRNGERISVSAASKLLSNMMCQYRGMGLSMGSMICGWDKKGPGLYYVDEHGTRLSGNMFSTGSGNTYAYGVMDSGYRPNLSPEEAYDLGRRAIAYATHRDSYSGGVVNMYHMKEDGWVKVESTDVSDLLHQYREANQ
UniProt Q9BQI7: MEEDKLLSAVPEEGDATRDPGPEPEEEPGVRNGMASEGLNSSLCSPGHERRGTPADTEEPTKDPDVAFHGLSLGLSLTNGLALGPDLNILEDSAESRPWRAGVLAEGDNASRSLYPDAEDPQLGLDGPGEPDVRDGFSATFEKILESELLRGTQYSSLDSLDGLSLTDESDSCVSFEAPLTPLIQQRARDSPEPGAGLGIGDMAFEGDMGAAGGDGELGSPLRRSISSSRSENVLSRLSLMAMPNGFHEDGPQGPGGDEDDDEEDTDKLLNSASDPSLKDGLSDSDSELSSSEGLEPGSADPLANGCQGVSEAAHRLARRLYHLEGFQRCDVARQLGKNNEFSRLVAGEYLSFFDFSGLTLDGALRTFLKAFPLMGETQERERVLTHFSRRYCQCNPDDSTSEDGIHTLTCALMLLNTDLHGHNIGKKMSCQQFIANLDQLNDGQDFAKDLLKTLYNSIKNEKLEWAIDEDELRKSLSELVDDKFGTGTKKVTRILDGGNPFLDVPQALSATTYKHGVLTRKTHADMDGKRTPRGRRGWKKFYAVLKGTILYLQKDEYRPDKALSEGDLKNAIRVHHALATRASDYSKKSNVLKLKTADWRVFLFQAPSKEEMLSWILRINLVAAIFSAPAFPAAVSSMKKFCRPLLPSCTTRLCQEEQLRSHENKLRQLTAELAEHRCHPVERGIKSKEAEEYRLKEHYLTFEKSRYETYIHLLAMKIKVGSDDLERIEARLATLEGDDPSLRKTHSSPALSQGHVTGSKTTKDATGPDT
UniProt P28065: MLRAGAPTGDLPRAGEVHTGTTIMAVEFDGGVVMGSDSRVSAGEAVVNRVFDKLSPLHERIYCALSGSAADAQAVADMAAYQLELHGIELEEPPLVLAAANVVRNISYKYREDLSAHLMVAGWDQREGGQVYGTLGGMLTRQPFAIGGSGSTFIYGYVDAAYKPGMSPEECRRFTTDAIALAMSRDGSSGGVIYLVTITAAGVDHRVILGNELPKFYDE
UniProt Q9UHX1: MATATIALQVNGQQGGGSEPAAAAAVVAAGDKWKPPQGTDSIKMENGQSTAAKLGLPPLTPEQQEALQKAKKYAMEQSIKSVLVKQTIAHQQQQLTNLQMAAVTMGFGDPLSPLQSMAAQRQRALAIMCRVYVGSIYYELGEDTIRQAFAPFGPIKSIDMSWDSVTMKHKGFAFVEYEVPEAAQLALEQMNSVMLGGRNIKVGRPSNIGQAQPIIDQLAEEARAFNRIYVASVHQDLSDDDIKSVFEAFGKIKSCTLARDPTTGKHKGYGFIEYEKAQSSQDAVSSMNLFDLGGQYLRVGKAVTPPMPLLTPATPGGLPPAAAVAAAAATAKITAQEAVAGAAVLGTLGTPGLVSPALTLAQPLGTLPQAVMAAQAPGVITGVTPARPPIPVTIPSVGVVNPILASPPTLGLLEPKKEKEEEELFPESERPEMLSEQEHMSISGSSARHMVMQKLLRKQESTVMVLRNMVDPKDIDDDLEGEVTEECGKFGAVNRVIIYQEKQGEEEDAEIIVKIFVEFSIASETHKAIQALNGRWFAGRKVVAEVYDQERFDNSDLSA
UniProt Q9P2W1: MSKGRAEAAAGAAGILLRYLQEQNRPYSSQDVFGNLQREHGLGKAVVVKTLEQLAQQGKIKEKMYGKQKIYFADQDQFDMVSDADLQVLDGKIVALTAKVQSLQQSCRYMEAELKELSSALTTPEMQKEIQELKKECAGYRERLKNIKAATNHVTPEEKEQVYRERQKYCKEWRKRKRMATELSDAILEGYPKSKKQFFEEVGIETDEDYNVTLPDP
UniProt Q9UJV8: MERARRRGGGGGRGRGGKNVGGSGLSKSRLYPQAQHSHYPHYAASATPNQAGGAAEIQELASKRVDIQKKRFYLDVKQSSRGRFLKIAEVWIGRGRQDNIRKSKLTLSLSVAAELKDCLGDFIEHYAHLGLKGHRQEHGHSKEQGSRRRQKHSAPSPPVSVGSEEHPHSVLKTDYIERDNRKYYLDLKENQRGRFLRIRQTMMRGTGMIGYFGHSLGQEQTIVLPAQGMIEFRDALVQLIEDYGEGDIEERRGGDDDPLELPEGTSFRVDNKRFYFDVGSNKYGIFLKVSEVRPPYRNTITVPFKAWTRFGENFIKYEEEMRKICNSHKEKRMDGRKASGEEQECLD
UniProt Q9Y3T6: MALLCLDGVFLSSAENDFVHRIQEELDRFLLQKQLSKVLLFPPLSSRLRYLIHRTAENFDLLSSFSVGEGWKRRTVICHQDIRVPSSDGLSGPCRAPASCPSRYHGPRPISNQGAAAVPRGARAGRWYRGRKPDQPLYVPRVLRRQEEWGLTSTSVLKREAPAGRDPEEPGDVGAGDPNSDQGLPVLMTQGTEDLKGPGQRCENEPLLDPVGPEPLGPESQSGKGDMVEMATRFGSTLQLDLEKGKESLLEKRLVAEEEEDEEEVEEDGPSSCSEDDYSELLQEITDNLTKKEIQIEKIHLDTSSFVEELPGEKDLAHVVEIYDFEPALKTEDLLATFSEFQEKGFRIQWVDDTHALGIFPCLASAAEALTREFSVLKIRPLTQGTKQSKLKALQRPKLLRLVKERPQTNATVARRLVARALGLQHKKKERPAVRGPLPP
UniProt Q86Y79: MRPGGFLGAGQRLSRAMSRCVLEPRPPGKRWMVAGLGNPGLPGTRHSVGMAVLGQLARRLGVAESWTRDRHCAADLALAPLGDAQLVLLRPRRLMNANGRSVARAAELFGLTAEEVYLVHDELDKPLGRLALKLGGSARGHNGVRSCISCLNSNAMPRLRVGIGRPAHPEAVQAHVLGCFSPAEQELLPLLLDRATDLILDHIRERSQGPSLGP

Assays:
Test in all cases: log2 fold change, soluble protein after heating vs DMSO (PISA); higher = thermal stabilisation; K562 cells, 10 uM, 30 min; active = over 0.2 and 3.5 SD of the protein, either way, in both replicates (recomputed)
sotrastaurin = compound: CN1CCN(c2nc(C3=C(c4c[nH]c5ccccc45)C(=O)NC3=O)c3ccccc3n2)CC1 [sotrastaurin]
How it was run: (§1)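 For each measurement, 10 μM compound was applied for 30 min to K562 cells at 2×10^6 cells/mL. Aliquots were heated for 3 min across 48°C-58°C, pooled, and extracted in PBS with 0.5% NP-40 at 4°C; the supernatant after 21,000xg for 90 min was soluble protein. This was quantified by TMTpro 16plex LC-MS/MS with channel sums equalised, and thermal stability was reported relative to control samples from duplicates, on a log2 fold-change scale.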

filanesib = compound: CON(C)C(=O)N1N=C(c2cc(F)ccc2F)S[C@@]1(CCCN)c1ccccc1 [filanesib]
How it was run: as §1

saracatinib = compound: CN1CCN(CCOc2cc(OC3CCOCC3)c3c(Nc4c(Cl)ccc5c4OCO5)ncnc3c2)CC1 [saracatinib]
How it was run: as §1

[1] = compound: CNc1nc(-c2ccc3c(N)n[nH]c3c2)cc(N2C[C@@H](C(=O)NC3CCCCC3)CC[C@H]2C)n1
How it was run: as §1

alisertib = compound: COc1cc(Nc2ncc3c(n2)-c2ccc(Cl)cc2C(c2c(F)cccc2OC)=NC3)ccc1C(=O)O [alisertib]
How it was run: as §1

[2] = compound: COc1cccc2cc(-c3nc([C@H]4CC[C@H](C(=O)O)CC4)n4ncnc(N)c34)[nH]c12
How it was run: as §1

pictilisib = compound: CS(=O)(=O)N1CCN(Cc2cc3nc(-c4cccc5[nH]ncc45)nc(N4CCOCC4)c3s2)CC1 [pictilisib]
How it was run: as §1

alvocidib = compound: CN1CC[C@H](c2c(O)cc(O)c3c(=O)cc(-c4ccccc4Cl)oc23)[C@H](O)C1 [alvocidib]
How it was run: as §1

Tubastatin A = compound: CN1CCc2c(c3ccccc3n2Cc2ccc(C(=O)NO)cc2)C1 [Tubastatin A]
How it was run: as §1

[3] = compound: CNC(=O)C1=CC=CC=C1NC2=NC(=NC=C2Cl)NC3=C(C=C(C=C3)N4CCOCC4)OC
How it was run: as §1

defactinib = compound: CNC(=O)c1ccc(Nc2ncc(C(F)(F)F)c(NCc3nccnc3N(C)S(C)(=O)=O)n2)cc1 [defactinib]
How it was run: as §1

rucaparib = compound: CNCc1ccc(-c2[nH]c3cc(F)cc4c3c2CCNC4=O)cc1 [rucaparib]
How it was run: as §1

encorafenib = compound: COC(=O)N[C@@H](C)CNc1nccc(-c2cn(C(C)C)nc2-c2cc(Cl)cc(NS(C)(=O)=O)c2F)n1 [encorafenib]
How it was run: as §1

[4] = compound: COC(=O)[C@H](CCSC)NC(=O)C1=C(C=C(C=C1)NC[C@H](CS)N)C2=CC=CC=C2
How it was run: as §1

[5] = compound: COC1=CC=C(C=C1)CN2C=CC3=C2C=C(C=C3)C(=O)NO
How it was run: as §1

zotarolimus = compound: CO[C@H]1C[C@@H]2CC[C@@H](C)[C@@](O)(O2)C(=O)C(=O)N2CCCC[C@H]2C(=O)O[C@H]([C@H](C)C[C@@H]2CC[C@H](n3cnnn3)[C@H](OC)C2)CC(=O)[C@H](C)/C=C(\C)[C@@H](O)[C@@H](OC)C(=O)[C@H](C)C[C@H](C)/C=C/C=C/C=C/1C [zotarolimus]
How it was run: as §1

idasanutlin = compound: COc1cc(C(=O)O)ccc1NC(=O)[C@@H]1N[C@@H](CC(C)(C)C)[C@](C#N)(c2ccc(Cl)cc2F)[C@H]1c1cccc(Cl)c1F [idasanutlin]
How it was run: as §1

[6] = compound: COc1cc2nc(-c3cc(F)ccc3O)nc(N[C@@H]3CNC[C@H]3C(C)(C)O)c2cc1OC
How it was run: as §1

lapatinib = compound: CS(=O)(=O)CCNCc1ccc(-c2ccc3ncnc(Nc4ccc(OCc5cccc(F)c5)c(Cl)c4)c3c2)o1 [lapatinib]
How it was run: as §1

gefitinib = compound: COc1cc2ncnc(Nc3ccc(F)c(Cl)c3)c2cc1OCCCN1CCOCC1 [gefitinib]
How it was run: as §1

Measured: log2 fold change

PTPRJ (UniProt Q12913)
inactive: sotrastaurin -0.202 | filanesib 0.048

PTPN9 (UniProt P43378)
inactive: saracatinib -0.056 | [1] -0.002 | alisertib -0.569 | [2] -0.16 | pictilisib -0.209

PUS1 (UniProt Q9Y606)
inactive: sotrastaurin -0.039 | alvocidib -0.132 | Tubastatin A 0.192 | [3] -0.003 | defactinib -0.299 | rucaparib 0.669 | encorafenib 0.023 | [4] -0.232 | [5] -0.085 | filanesib 0.019 | zotarolimus 0.066 | idasanutlin -0.099 | [6] -0.03 | lapatinib -0.014 | pictilisib 0.072

PSD3 (UniProt Q9NYI0)
inactive: defactinib -0.004 | rucaparib -0.03 | encorafenib 0.003 | [4] -0.019 | [5] -0.003 | zotarolimus 0.074 | idasanutlin 0.015 | alisertib -0.003 | [6] 0.141 | gefitinib 0.036 | [2] 0.069 | lapatinib -0.07

PSMB8 (UniProt P28062)
inactive: alvocidib 0.001 | [3] 0.038 | [5] -0.062 | zotarolimus 0.03 | idasanutlin 0.013 | gefitinib 0.159 | pictilisib -0.046

PSD2 (UniProt Q9BQI7)
inactive: sotrastaurin 0.004 | defactinib 0.082 | [4] 0.022 | filanesib -0.136 | idasanutlin 0.014 | alisertib 0.12 | gefitinib -0.004 | [2] 0.045

PSMB9 (UniProt P28065)
inactive: sotrastaurin 0.074 | [3] 0.062 | defactinib -0.008 | rucaparib 0.296 | encorafenib -0.22 | [4] 0.094 | [5] 0.25 | filanesib 0.189 | zotarolimus -0.08 | idasanutlin -0.028 | [6] 0.246 | lapatinib -0.064 | pictilisib -0.006

PUF60 isoform 2 (UniProt Q9UHX1)
inactive: saracatinib 0.107 | Tubastatin A 0.202 | defactinib -0.165 | [1] -0.403 | [4] -0.089 | zotarolimus 0.18 | idasanutlin -0.042 | alisertib -0.203 | [6] -0.071 | [2] 0.027 | lapatinib 0.407

PYCR1 (UniProt J3QKT4)
inactive: Tubastatin A -0.053 | [3] -0.111 | defactinib -0.084 | rucaparib 0.026 | encorafenib -0.236 | [4] 0.199 | idasanutlin -0.107 | pictilisib 0.167

PSMD8 (UniProt K7ERW6)
inactive: Tubastatin A 0.235 | defactinib 0.011 | [4] 0.066 | [5] -0.188

PSIP1 (UniProt V9GYT7)
inactive: saracatinib 0.115 | alvocidib 0.023 | Tubastatin A -0.034 | rucaparib 0.076 | [1] -0.216 | encorafenib -0.086 | [5] 0.107 | zotarolimus -0.101 | alisertib -0.148 | [6] 0.045 | gefitinib -0.036 | [2] -0.192 | lapatinib -0.079 | pictilisib 0.111

PSMC3IP (UniProt Q9P2W1)
inactive: alvocidib -0.027 | Tubastatin A -0.028 | [3] -0.038 | defactinib -0.185 | rucaparib 0.122 | encorafenib 0 | [4] 0.023 | zotarolimus 0.071 | idasanutlin 0.004 | alisertib 0.182 | [6] 0.054 | gefitinib -0.127 | [2] -0.273 | lapatinib -0.001 | pictilisib -0.136

PURG (UniProt Q9UJV8)
inactive: sotrastaurin 0.142 | filanesib 0.215 | gefitinib -0.043

PSMD8 (UniProt K7EK21)
inactive: zotarolimus -0.174

R3HCC1 (UniProt Q9Y3T6)
inactive: sotrastaurin 0.023 | alvocidib -0.064 | Tubastatin A -0.054 | [3] -0.111 | defactinib -0.083 | [4] -0.216 | [5] 0.008 | filanesib 0.059 | zotarolimus 0.153 | idasanutlin 0.074 | [6] 0.084 | gefitinib 0.177 | lapatinib 0.151 | pictilisib -0.129

PTPN18 (UniProt Q99952)
inactive: sotrastaurin 0.164 | [3] -0.001 | rucaparib 0.085 | encorafenib 0.005 | [5] -0.129 | filanesib 0.161 | alisertib -0.053 | gefitinib 0.042 | [2] 0.026

PTRH1 (UniProt Q86Y79)
inactive: saracatinib -0.069 | alvocidib -0.011 | [1] -0.005 | [5] 0.003 | zotarolimus -0.038 | idasanutlin 0.072 | pictilisib -0.01

Fetched one by one from above (2):
PTRH1 (UniProt Q86Y79)
inactive: saracatinib -0.069 | alvocidib -0.011 | [1] -0.005 | [5] 0.003 | zotarolimus -0.038 | idasanutlin 0.072 | pictilisib -0.01

PTPN18 (UniProt Q99952)
inactive: sotrastaurin 0.164 | [3] -0.001 | rucaparib 0.085 | encorafenib 0.005 | [5] -0.129 | filanesib 0.161 | alisertib -0.053 | gefitinib 0.042 | [2] 0.026
